Results are given in words; binding and its absence hold for the method and conditions named. Binding seen in cells or lysates may run through a third protein. Some entries that bind do so weakly or less than the wild type.
Columns and labels:
[1] = target: GFP-ATG16L1 (full-length ATG16L1) (human (cDNA cloned from HEK293)) (UniProt Q676U5); test: co-IP; immunoprecipitation with ATG16L1 antibody from cell lysates, blot for FIP200 and ATG16L1; cells with or without 1 uM Torin1 for 1 h (Figure 5C) or after 1 h of starvation (Figure 7I); IP lysis buffer 50 mM Tris-HCl pH 7.4, 1% TritonX-100, 150 mM NaCl, 1 mM EDTA
[2] = target: ATP6V1D (human (endogenous in HeLa)) (UniProt Q9Y5K8); test: co-IP; immunoprecipitation of ATP6V1D from cell lysates, blot for ATG16L1 and ATP6V1D; cells treated with 2 uM Torin1, 10 uM AMDE-1 or 10 uM niclosamide for 6 h (Figure 6I) or 20 uM AMDE-1 for 3 h (Figure 7J); IP lysis buffer 50 mM Tris-HCl pH 7.4, 1% TritonX-100, 150 mM NaCl, 1 mM EDTA

The chains behind the UniProt entries cited, without tags or fusion partners.
UniProt Q676U5: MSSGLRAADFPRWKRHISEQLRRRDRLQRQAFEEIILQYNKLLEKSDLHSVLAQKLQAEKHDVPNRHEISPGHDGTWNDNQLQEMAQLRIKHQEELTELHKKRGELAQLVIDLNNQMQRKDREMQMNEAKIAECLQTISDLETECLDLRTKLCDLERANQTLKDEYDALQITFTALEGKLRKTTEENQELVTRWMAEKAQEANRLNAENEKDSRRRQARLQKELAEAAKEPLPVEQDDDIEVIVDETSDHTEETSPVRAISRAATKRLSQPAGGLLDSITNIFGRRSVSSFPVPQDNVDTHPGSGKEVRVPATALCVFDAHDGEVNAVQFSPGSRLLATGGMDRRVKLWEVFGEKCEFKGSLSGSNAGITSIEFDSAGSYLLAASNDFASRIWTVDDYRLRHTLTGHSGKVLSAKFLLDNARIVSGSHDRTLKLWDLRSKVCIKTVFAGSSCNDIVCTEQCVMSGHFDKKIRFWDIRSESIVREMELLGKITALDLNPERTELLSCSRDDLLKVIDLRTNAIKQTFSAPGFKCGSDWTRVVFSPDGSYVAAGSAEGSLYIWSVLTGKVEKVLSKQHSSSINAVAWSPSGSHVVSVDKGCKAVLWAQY
UniProt Q9Y5K8: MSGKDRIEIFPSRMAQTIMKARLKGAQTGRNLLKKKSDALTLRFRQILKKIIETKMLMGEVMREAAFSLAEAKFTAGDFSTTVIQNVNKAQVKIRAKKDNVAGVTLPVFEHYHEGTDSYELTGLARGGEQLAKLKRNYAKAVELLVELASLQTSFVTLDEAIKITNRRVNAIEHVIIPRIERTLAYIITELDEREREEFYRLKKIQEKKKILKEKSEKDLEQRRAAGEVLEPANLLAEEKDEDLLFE
UniProt Q8TDY2: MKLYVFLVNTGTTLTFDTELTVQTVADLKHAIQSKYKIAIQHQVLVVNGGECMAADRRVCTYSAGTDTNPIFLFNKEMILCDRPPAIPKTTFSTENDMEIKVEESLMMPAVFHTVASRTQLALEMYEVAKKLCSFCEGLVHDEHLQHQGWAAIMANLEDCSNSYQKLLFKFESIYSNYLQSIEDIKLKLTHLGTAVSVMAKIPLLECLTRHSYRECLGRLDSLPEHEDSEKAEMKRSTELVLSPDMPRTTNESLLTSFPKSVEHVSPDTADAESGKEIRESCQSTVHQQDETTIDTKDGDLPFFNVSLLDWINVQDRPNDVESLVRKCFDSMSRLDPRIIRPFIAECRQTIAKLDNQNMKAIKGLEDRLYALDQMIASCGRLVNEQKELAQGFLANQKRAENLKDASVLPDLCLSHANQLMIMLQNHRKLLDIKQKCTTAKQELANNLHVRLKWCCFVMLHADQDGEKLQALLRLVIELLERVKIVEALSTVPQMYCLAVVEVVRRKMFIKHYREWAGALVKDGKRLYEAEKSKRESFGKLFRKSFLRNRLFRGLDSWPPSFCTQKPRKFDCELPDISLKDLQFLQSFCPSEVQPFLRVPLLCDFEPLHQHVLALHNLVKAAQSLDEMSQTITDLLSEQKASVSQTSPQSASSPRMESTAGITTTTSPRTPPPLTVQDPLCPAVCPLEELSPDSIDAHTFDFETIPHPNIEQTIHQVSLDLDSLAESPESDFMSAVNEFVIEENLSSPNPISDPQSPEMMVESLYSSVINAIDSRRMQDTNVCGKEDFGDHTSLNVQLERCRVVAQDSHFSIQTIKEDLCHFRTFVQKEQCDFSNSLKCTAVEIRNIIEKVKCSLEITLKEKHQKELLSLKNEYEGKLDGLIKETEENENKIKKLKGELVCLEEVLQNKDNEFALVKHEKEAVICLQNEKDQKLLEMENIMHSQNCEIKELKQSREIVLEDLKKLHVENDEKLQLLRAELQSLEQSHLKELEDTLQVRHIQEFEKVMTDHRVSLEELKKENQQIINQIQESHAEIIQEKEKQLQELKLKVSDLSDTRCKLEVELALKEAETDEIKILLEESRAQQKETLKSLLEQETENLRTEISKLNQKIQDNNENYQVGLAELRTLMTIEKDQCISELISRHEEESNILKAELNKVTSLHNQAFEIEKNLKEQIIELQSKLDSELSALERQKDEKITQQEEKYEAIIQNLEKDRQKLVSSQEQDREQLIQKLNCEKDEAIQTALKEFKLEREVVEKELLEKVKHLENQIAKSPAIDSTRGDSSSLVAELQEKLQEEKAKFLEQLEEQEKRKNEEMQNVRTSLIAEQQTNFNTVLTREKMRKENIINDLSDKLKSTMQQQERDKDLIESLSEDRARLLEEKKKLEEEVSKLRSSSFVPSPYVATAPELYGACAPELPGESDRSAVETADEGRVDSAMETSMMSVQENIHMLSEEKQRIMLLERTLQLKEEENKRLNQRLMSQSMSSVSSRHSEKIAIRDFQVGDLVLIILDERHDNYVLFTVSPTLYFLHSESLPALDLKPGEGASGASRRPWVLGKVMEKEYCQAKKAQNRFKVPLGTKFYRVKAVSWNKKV

Row | binding [1] | binding [2] | Substance
1 | binds | – | FIP200 (from UniProt Q8TDY2 1-1594)
2 | – | binds | GFP-ATG16L1 (full-length ATG16L1) (from UniProt Q676U5 1-607)
